In patent US20100184653A1, “Derivates of Polyethylene Glycol Modified Thymosin Alpha 1” (Jiangsu Hansen Pharmaceutical Co., Ltd., priority 2008, published 2010):
Not every detail of the peptide structures is certain; ends, links or a residue may be inferred. Residues, ends and D or L forms follow the SMILES beside them.

What was measured:
[1] = system: T-lymphocytes (mice's spleen cells); experiment: ConA-induced IFN-γ production by mouse spleen T lymphocytes, ELISA of culture supernatant; type: cell-based, ICR mice; design: Mean (IFN-γ, ConA-induced cytokine production): unit not given here; details: for Mean (IFN-γ, ConA-induced cytokine production): 24 hours
Experimental: (§1) With Zadaxin as a positive control, the effect of the samples on T-lymphocytes producing cytokines were tested to confirm if the samples could adjust T-lymphocyte immune activity and the extent thereof.
(§2) In the lymphocytes cultured in vitro, T cell can be activated by the stimulation of mitosis Concanavalin A and brings change of cells' behavior such as cytokine synthesis, cytokine receptor expression, cell differentiation and cell proliferation. The generation of cytokine and proliferation of the cell are response of the immune cell function and cell activation. Detection means is reliable, simple, and with good repeatability, therefore, evaluating the samples' effect to the function of T lymphocytes by detecting cytokine generation and cell proliferation has been widely applied.
(§3) Preparation of spleen cell suspension: mice's spleen was obtained under aseptic condition, which was ground with frosted glass. The spleen cell suspension was thus obtained. After red blood lysis, the spleen cell suspension was washed three times, counted (live cells being more than 95%). The concentration of spleen cell was adjusted to 5×10^6 cells/ml with 10% FBS (bovine serum) RPMI1640 culture fluid.
(§4) The concentration of mice's Spleen cells was adjusted to 5×10^6 cells/ml, and then distributed it into 24 wells plate with 1 ml/well; samples with various concentrations were added into the plate respectively with 0.5 ml/well; and then ConA (20 ug/ml) was added with 0.5 ml/well. The samples were kept at 37° C. in CO2 incubator for 24 hours, centrifuged and collected culture supernatant.
(§5) Antibody Coating: The antibody was diluted with coating buffer and then was added into 96 well ELISA plates with 50 μL each wells. The plate was left overnight at […].
(§6) Blocking: The antibody coating buffer was removed, and the plate was washed 3 times with washing solution (PBS/Tween solution). 100 μL of blocking buffer (PBS/10% FBS) was added to each wells of the plates. The plate was incubated at room temperature for 1 hour.
(§7) Standards and samples: The blocking buffer was removed from the plates, which was washed 3 times with washing solution (PBS/Tween solution) and followed by adding standards and samples with 50 μL each wells. The plate was incubated at room temperature for 2 hours.
(§8) Detection of Antibody and Enzyme: The standards and samples were removed from the plates. The plate was washed 3 times with washing solution (PBS/Tween solution). The diluted detective antibody and enzyme HRP were added into the plate with 50 μL each wells. The plate was incubated at room temperature for 1 hour.
(§9) Substrate Staining: The diluted detection antibody and enzyme HRP were removed from the plate which was then washed 3 times with washing solution (PBS/Tween solution). The substrate resolved in citricic acid/hydrogen peroxide (TMB) was added into the plate with 50 μL each wells. The plate was incubated at room temperature away from the light for 30 minutes. After being stained, stop solution 2N H2SO4 was added into the plate with 25 μL per well.
(§10) OD Detection: The plate was placed into enzyme-labeled instrument and read OD values at 450 nm (calibrated value of 570 nm).

[2] = system: T-lymphocytes (mice's spleen cells); experiment: ConA-induced IL-2 production by mouse spleen T lymphocytes, ELISA of culture supernatant; type: cell-based, ICR mice; design: unit not given here; details: 24 hours
Experimental: as §1, §2, §3, §4, §5, §6, §7, §8, §9, §10

CC[C@H](C)[C@H](NC(=O)[C@H](CCC(=O)O)NC(=O)[C@H](CO)NC(=O)[C@H](CO)NC(=O)[C@@H](NC(=O)[C@H](CC(=O)O)NC(=O)[C@@H](NC(=O)[C@H](C)NC(=O)[C@H](C)NC(=O)[C@H](CC(=O)O)NC(=O)[C@H](CO)NC(C)=O)C(C)C)[C@@H](C)O)C(=O)N[C@H](C(=O)N[C@H](C(=O)N[C@@H](CCCCN)C(=O)N[C@@H](CC(=O)O)C(=O)N[C@@H](CC(C)C)C(=O)N[C@@H](CCCCN)C(=O)N[C@@H](CCC(=O)O)C(=O)N[C@@H](CCCCN)C(=O)N[C@@H](CCCCN)C(=O)N[C@@H](CCC(=O)O)C(=O)N[C@H](C(=O)N[C@H](C(=O)N[C@@H](CCC(=O)O)C(=O)N[C@@H](CCC(=O)O)C(=O)N[C@@H](C)C(=O)N[C@@H](CCC(=O)O)C(=O)N[C@@H](CC(N)=O)C(=O)O)C(C)C)C(C)C)[C@@H](C)O)[C@@H](C)O [Zadaxin, thymosin alpha 1] (Ac-SDAAVDTSSEITTKDLKEKKEVVEEAEN-OH)
promoting activity to the production of IFN-r by T cells ([1]; concentration 1 ug/ml and 10 ug/ml): showed a certain promoting activity
Mean (IFN-γ, ConA-induced cytokine production) ([1]; sample 0.001 ug/ml): 4177
Mean (IFN-γ, ConA-induced cytokine production) ([1]; sample 0.01 ug/ml): 4118
Mean (IFN-γ, ConA-induced cytokine production) ([1]; sample 0.1 ug/ml): 4106
Mean (IFN-γ, ConA-induced cytokine production) ([1]; sample 1 ug/ml): 4836
Mean (IFN-γ, ConA-induced cytokine production) ([1]; sample 10 ug/ml): 4832
Mean (IFN-γ, ConA-induced cytokine production) ([1]; sample 100 ug/ml): 4095
Mean (IL-2, ConA-induced cytokine production) ([2]; sample 0.001 ug/ml): 3231
Mean (IL-2, ConA-induced cytokine production) ([2]; sample 0.01 ug/ml): 3582
Mean (IL-2, ConA-induced cytokine production) ([2]; sample 0.1 ug/ml): 3434
Mean (IL-2, ConA-induced cytokine production) ([2]; sample 1 ug/ml): 3692
Mean (IL-2, ConA-induced cytokine production) ([2]; sample 10 ug/ml): 3614
Mean (IL-2, ConA-induced cytokine production) ([2]; sample 100 ug/ml): 3840
